Source: patent US8309523 (VIB VZW, dated 2012)
These are yes or no findings as the source states them, for the method shown. In cells and extracts the contact can be indirect. Some binding calls cover weakened binding; strength is not graded here.

By UniProt entry, the sequences of proteins in these tests, tags left out. Residues count along the entry.
UniProt Q9UDY8, residues 2-824: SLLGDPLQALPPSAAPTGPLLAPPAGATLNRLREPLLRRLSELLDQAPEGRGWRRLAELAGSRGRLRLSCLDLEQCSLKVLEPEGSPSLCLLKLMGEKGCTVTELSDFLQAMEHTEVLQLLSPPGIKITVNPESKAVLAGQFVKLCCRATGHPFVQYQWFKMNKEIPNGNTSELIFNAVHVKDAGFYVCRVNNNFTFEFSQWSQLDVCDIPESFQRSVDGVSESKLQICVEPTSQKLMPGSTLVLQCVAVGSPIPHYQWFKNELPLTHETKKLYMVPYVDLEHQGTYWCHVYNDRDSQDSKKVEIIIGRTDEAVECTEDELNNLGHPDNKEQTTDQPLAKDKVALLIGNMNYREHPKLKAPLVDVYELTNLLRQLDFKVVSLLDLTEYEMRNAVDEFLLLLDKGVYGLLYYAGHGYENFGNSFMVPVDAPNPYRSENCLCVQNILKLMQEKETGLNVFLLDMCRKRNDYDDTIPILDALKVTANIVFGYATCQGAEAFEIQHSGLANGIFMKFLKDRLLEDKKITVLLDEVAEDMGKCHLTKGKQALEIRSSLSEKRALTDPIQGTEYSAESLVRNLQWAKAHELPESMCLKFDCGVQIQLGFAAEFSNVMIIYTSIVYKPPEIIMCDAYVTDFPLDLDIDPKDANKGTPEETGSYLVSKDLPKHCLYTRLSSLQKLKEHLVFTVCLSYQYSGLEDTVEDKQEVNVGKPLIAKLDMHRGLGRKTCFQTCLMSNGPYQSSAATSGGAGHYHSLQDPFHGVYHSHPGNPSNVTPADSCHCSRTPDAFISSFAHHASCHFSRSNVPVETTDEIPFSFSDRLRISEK

Target: MALT1 (endogenous, Jurkat cells) (human) (UniProt Q9UDY8)
Assay: co-immunoprecipitation with anti-MALT1 from Jurkat cells, immunoblot

binding: binds
B1: BCL10 (other, UniProt O95999 1-233, looked up)
chain: MEPTAPSLTEEDLTEVKKDALENLRVYLCEKIIAERHFDHLRAKKILSREDTEEISCRTSSRKRAGKLLDYLQENPKGLDTLVESIRREKTQNFLIQKITDEVLKLRNIKLEHLKGLKCSSCEPFPDGATNNLSRSNSDESNFSEKLRASTVMYHPEGESSTTPFFSTNSSLNLPVLEVGRTENTIFSSTTLPRPGDPGAPPLPPDLQLEEEGTCANSSEMFLPLRSRTVSRQ
notes: Co-precipitated from lysates of human cell lines
